Results on 1 molecule are retold here after article PMC5519615.

In the assay the target is T1, acid-sensing ion channel 1a (ASIC1a) (human (endogenous in HL-MVEC)) (UniProt P78348).
T1 sequence: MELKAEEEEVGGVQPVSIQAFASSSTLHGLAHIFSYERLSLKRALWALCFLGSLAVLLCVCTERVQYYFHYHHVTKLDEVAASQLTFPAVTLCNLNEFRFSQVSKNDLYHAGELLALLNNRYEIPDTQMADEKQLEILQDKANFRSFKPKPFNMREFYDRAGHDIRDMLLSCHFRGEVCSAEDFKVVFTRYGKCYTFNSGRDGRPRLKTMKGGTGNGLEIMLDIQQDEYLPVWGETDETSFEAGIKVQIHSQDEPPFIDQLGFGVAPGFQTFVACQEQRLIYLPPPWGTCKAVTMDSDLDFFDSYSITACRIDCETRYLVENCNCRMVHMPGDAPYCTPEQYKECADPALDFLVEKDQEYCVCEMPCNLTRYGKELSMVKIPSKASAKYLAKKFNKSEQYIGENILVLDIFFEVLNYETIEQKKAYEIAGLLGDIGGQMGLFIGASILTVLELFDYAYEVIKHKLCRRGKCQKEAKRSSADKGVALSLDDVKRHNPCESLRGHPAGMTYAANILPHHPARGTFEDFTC
The assay is described as follows: co-IP; precleared whole HL-MVEC lysate (20 mM Tris-HCl pH 7.4, 0.15 M NaCl, 1% Nonidet P-40, 2 mM EDTA) incubated with ASIC1 antibody 1 h at 4°C, then agarose G magnetic beads overnight at 4°C; western blot with ENaC-α antibody. For orientation: A western blot detects proteins with antibodies after separation by electrophoresis.

No constants are given. Whether binding was seen depends on the method and setting. In cells and extracts the contact can be indirect. Some binding calls cover weakened binding; strength is not graded here.

B1: epithelial sodium channel (ENaC)-α (protein, UniProt P37088 1-669)
chain: MEGNKLEEQDSSPPQSTPGLMKGNKREEQGLGPEPAAPQQPTAEEEALIEFHRSYRELFEFFCNNTTIHGAIRLVCSQHNRMKTAFWAVLWLCTFGMMYWQFGLLFGEYFSYPVSLNINLNSDKLVFPAVTICTLNPYRYPEIKEELEELDRITEQTLFDLYKYSSFTTLVAGSRSRRDLRGTLPHPLQRLRVPPPPHGARRARSVASSLRDNNPQVDWKDWKIGFQLCNQNKSDCFYQTYSSGVDAVREWYRFHYINILSRLPETLPSLEEDTLGNFIFACRFNQVSCNQANYSHFHHPMYGNCYTFNDKNNSNLWMSSMPGINNGLSLMLRAEQNDFIPLLSTVTGARVMVHGQDEPAFMDDGGFNLRPGVETSISMRKETLDRLGGDYGDCTKNGSDVPVENLYPSKYTQQVCIHSCFQESMIKECGCAYIFYPRPQNVEYCDYRKHSSWGYCYYKLQVDFSSDHLGCFTKCRKPCSVTSYQLSAGYSRWPSVTSQEWVFQMLSRQNNYTVNNKRNGVAKVNIFFKELNYKTNSESPSVTMVTLLSNLGSQWSLWFGSSVLSVVEMAELVFDLLVIMFLMLLRRFRSRYWSPGRGGRGAQEVASTLASSPPSHFCPHPMSLSLSQPGPAPSPALTAPPPAYATLGPRPSPGGSAGASSSTCPLGGP
In the case of B1, the binding result was “binds”.
